Experimental data reported in patent publication US4540705A, “Antidepressant imidazolines and related compounds” (priority 1983, dated 1985).
At least one structure is not confirmed: it was looked up by name or label, or the drawing left a doubt.

Tested on: α2 -adrenergic
Assay: α2 -adrenergic antagonist activity (general statement)
Protocol: On the other hand, the sympathomimetic activity characteristic of the latter group of compounds is not present in the compounds of the present invention.
The α2 -adrenergic antagonist activity is measured by three screening methods, described as follows: […]

Compound: c1ccc2c(c1)CCC2C1=NCCN1 (stereo not shown) [2-(1-indanyl)imidazoline]
- α2 -adrenergic antagonist activity (in words): essentially devoid of such activity
